# Source: the supplement of paper PMC6411743
# The chains behind the UniProt entries cited, without tags or fusion partners. Where a name states a change or a piece, a line headed by the entry shows the natural chain unless it says otherwise.
# UniProt Q14653: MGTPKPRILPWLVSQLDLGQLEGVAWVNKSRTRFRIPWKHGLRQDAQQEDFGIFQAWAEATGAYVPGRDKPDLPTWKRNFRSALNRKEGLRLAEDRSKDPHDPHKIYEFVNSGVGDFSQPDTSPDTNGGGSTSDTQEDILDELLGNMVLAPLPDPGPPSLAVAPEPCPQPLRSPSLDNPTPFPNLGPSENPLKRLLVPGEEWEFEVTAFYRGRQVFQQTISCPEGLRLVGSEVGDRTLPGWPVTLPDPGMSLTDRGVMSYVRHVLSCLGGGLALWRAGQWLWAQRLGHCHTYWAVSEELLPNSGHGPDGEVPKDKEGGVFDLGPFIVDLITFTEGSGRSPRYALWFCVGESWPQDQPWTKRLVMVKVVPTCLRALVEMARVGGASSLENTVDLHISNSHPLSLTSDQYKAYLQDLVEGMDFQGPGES
# UniProt O00567: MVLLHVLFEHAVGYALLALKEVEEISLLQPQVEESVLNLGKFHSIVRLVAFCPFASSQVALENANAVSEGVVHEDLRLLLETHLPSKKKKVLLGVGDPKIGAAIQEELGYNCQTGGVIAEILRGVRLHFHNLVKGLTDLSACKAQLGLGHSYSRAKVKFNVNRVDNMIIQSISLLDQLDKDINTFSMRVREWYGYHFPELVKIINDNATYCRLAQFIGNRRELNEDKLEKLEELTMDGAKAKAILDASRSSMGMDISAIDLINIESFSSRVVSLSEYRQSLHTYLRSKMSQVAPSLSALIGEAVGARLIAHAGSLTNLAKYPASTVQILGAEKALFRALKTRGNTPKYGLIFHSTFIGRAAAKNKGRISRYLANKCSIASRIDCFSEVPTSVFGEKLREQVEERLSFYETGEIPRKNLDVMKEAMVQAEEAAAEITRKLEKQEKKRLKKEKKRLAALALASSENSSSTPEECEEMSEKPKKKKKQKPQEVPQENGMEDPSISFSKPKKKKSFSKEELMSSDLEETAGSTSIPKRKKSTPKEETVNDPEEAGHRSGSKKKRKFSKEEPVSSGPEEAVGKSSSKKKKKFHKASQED
# UniProt O43298: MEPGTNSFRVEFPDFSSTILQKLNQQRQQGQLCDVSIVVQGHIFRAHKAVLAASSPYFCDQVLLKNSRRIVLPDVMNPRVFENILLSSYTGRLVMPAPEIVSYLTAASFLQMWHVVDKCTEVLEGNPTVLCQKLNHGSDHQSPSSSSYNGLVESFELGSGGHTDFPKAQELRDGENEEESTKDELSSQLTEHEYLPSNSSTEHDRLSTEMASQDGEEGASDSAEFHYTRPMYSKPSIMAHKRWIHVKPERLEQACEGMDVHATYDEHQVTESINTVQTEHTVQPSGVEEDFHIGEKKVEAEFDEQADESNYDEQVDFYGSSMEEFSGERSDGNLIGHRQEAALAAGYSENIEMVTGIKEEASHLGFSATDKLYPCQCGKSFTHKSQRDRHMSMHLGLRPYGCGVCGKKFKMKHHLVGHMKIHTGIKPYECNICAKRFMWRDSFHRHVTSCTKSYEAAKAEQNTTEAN
# UniProt O43156, whole entry: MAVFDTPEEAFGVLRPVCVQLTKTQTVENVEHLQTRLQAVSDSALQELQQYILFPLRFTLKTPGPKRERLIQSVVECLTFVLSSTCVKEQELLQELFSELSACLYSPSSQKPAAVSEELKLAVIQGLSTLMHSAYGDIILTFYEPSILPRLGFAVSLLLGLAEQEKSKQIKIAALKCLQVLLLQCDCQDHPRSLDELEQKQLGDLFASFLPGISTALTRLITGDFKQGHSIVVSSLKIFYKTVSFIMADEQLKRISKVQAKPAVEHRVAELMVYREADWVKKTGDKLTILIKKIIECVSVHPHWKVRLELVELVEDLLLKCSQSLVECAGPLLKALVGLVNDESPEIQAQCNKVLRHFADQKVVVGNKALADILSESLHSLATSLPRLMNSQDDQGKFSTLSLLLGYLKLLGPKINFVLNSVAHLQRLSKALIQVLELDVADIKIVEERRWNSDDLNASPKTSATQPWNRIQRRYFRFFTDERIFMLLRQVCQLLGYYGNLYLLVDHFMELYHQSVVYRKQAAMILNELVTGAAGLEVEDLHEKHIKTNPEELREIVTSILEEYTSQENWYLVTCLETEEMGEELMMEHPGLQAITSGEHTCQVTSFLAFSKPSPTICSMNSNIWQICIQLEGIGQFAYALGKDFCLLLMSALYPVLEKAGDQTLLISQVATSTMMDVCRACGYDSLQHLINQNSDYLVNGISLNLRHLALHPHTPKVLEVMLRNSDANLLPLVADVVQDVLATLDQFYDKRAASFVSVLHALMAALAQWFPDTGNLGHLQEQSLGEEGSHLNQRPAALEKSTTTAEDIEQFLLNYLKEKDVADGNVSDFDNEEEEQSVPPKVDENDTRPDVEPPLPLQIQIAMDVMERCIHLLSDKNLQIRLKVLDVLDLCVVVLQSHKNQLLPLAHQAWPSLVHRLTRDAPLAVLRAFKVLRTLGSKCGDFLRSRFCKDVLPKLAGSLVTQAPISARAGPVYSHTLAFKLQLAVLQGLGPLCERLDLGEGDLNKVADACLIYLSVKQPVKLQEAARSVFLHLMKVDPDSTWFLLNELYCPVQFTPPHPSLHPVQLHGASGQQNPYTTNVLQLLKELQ
# UniProt O43513: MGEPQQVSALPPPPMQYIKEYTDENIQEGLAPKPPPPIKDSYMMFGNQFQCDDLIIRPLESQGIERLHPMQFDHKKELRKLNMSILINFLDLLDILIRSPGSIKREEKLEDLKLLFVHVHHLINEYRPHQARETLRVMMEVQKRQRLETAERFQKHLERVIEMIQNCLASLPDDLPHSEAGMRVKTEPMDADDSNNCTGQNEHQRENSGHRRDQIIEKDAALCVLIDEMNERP
# UniProt O43150: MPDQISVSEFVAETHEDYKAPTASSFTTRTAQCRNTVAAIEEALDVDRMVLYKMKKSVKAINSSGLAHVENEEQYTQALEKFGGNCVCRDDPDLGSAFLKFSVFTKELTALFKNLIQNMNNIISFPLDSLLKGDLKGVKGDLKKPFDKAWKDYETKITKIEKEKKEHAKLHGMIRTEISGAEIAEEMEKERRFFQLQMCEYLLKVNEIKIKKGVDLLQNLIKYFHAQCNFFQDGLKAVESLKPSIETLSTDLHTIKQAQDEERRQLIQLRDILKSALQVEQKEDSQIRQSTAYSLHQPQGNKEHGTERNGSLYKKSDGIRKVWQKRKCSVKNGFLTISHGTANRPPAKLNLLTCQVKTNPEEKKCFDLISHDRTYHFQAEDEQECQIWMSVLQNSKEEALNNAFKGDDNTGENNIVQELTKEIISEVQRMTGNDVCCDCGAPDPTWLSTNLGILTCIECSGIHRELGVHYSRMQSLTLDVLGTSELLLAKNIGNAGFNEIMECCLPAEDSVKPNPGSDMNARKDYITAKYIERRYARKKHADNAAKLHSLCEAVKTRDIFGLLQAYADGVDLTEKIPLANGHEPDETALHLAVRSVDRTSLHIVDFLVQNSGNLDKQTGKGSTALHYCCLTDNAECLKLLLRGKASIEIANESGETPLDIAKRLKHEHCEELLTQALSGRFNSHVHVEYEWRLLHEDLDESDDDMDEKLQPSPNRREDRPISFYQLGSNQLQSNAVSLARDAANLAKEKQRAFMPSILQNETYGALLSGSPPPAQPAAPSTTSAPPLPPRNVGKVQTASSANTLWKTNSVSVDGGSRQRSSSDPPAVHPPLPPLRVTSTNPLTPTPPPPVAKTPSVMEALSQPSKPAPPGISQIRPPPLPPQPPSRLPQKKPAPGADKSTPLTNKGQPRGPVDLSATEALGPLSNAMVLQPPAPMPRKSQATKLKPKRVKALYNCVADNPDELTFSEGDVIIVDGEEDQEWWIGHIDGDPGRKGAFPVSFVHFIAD
# UniProt O15397, whole entry: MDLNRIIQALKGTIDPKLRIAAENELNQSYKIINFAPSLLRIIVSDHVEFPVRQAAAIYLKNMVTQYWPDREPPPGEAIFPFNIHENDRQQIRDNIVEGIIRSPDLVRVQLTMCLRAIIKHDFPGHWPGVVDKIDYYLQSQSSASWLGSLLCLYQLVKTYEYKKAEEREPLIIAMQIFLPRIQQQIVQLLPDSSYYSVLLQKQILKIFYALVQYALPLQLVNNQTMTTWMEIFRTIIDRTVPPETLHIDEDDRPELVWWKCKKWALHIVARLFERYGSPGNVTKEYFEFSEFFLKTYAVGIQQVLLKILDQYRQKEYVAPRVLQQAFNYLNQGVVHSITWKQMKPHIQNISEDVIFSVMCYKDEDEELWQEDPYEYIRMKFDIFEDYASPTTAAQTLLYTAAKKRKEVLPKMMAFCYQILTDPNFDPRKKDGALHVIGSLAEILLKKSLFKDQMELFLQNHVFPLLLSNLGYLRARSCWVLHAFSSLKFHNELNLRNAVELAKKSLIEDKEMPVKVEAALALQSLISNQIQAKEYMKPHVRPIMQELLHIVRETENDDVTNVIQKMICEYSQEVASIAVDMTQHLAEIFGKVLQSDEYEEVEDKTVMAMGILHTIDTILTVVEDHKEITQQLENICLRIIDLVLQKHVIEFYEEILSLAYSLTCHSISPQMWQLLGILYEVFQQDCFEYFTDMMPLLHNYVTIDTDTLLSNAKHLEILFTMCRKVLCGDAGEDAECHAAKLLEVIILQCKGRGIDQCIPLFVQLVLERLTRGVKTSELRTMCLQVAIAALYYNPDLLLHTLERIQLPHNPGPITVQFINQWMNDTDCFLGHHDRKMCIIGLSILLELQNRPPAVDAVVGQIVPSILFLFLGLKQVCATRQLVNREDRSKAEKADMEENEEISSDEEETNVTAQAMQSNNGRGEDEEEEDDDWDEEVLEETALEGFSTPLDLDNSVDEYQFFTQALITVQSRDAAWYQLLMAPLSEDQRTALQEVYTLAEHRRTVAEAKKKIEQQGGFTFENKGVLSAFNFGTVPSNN
# UniProt Q9UI14, whole entry: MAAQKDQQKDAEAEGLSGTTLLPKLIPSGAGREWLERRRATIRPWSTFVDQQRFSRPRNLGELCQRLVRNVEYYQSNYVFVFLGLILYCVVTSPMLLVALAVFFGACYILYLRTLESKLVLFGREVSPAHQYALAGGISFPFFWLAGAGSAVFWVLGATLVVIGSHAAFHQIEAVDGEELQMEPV
# UniProt O15400: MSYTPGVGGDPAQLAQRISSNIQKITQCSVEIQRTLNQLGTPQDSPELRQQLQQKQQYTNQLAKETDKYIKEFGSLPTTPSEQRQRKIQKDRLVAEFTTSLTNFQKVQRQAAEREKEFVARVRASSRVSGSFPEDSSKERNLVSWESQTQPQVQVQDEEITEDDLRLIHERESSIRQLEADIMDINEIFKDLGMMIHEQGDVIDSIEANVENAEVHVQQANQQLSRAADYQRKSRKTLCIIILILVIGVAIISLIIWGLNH
# UniProt Q8IX01: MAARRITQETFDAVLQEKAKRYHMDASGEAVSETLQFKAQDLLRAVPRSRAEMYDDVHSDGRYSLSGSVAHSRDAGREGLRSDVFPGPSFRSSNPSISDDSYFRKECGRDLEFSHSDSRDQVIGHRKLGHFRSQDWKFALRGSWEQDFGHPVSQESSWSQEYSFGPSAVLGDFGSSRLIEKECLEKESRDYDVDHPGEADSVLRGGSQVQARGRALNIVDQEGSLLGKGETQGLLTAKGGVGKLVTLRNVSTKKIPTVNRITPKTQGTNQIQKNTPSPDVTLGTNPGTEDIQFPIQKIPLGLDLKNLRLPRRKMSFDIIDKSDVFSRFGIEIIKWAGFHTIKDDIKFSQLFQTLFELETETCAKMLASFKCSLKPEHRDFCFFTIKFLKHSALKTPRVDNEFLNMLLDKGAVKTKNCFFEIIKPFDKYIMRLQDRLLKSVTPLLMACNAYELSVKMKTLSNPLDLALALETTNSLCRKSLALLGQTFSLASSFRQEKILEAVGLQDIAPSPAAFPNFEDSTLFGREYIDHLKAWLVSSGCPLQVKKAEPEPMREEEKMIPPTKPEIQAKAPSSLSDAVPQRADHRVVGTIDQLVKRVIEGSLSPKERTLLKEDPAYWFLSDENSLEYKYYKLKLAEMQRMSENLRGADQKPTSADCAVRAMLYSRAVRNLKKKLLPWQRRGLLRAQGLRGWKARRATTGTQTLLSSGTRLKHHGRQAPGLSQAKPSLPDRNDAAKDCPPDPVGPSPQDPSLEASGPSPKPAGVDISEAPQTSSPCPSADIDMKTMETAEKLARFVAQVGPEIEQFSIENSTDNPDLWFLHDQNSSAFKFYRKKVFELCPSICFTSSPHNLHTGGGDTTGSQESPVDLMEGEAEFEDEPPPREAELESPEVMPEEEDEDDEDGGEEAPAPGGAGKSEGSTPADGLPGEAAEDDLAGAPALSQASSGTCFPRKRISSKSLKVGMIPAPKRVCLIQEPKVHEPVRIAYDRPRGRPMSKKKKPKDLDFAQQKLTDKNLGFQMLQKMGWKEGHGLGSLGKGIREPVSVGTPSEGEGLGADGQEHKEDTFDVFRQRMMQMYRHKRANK
# UniProt O15525: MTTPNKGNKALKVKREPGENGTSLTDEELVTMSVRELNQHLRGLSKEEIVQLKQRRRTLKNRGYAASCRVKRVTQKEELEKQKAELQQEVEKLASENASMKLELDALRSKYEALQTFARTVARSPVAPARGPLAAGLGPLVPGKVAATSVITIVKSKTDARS
# ± gives the standard deviation of the averaged measurements. The list shows a part of the results, in another mix than the full data.
# Compound: Nc1ncnc2c1ncn2[C@@H]1O[C@H](COP(=O)(O)OP(=O)(O)NP(=O)(O)O)[C@@H](O)[C@H]1O [adenylyl imidodiphosphate]
# Experiment: NP40-soluble protein abundance relative to vehicle (solubility fold change) (ratio); higher = more soluble protein in presence of AMP-PNP
# How it was run: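 Data come from three independent experiments in which Dounce-homogenised Jurkat crude lysate was treated at eight concentrations from 0.1 to 10 mM. Treatment ran 10 min at room temperature and then 3 min at 37 °C, after which 0.8% NP40 and benzonase were added for 60 min at 4 °C before ultracentrifugation. The supernatant underwent TMT labelling and LC-MS/MS, and vsn-normalised intensities were expressed as fold change against the detergent-processed vehicle in each replicate.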
Target,NP40-soluble protein abundance (concentration: 1mM),NP40-soluble protein abundance (concentration: 2mM),NP40-soluble protein abundance (concentration: 4mM),NP40-soluble protein abundance (concentration: 6mM),NP40-soluble protein abundance (concentration: 8mM),NP40-soluble protein abundance (concentration: 10mM)
KPNA4 (UniProt O00629),1.07 ± 0.029,1.074 ± 0.0097,1.07 ± 0.016,1.03 ± 0.047,1.05 ± 0.051,1.05 ± 0.037
UniProt O43903,1.05 ± 0.0042,1.07 ± 0.041,1.04 ± 0.079,0.999 ± 0.025,1.02 ± 0.05,1.01 ± 0.043
POLR3A (UniProt O14802),0.957 ± 0.047,0.9 ± 0.14,0.963 ± 0.055,0.915 ± 0.066,0.949 ± 0.068,0.939 ± 0.11
CBX4 (UniProt O00257),1.01 ± 0.02,1.01 ± 0.021,1.01 ± 0.022,1 ± 0.027,1.02 ± 0.013,1.08 ± 0.031
UniProt O15234 and related entries,1.06 ± 0.021,1.08 ± 0.032,1.04 ± 0.034,1 ± 0.04,0.981 ± 0.023,0.965 ± 0.014
UniProt O43813 and related entries,0.945 ± 0.034,0.901 ± 0.038,0.962 ± 0.025,0.996 ± 0.059,1.02 ± 0.033,0.9804 ± 0.0073
UniProt O14818 and related entries,0.909 ± 0.032,0.88 ± 0.048,0.876 ± 0.064,0.928 ± 0.037,0.913 ± 0.073,0.936 ± 0.11
IGF2BP3 (UniProt O00425),1.02 ± 0.014,0.985 ± 0.018,0.975 ± 0.031,0.934 ± 0.041,0.909 ± 0.054,0.889 ± 0.065
RNF13 (UniProt O43567),1.01 ± 0.043,1.01 ± 0.054,0.983 ± 0.011,0.963 ± 0.025,0.964 ± 0.031,0.943 ± 0.046
UniProt O14920,0.997 ± 0.018,0.977 ± 0.026,1.02 ± 0.015,1.01 ± 0.027,1.02 ± 0.018,0.996 ± 0.029
UniProt O43504,1.06 ± 0.011,1.1 ± 0.043,1.09 ± 0.021,1.02 ± 0.011,1.01 ± 0.024,1.07 ± 0.067
UniProt O14732 and related entries,1.01 ± 0.033,0.982 ± 0.053,0.988 ± 0.026,0.989 ± 0.02,0.987 ± 0.041,0.984 ± 0.025
AGPS (UniProt O00116),1.01 ± 0.014,0.978 ± 0.038,0.991 ± 0.031,0.989 ± 0.029,1.006 ± 0.0084,0.979 ± 0.022
XPOT (UniProt O43592),0.982 ± 0.03,0.966 ± 0.03,1.01 ± 0.022,1 ± 0.024,1.01 ± 0.049,1.02 ± 0.029
M0QYZ2 and related entries (UniProt P53680),0.913 ± 0.053,0.853 ± 0.06,0.911 ± 0.031,0.915 ± 0.034,1 ± 0.04,0.915 ± 0.065
M0QYM7 and related entries (UniProt P04350),1.03 ± 0.015,0.9836 ± 0.0043,1.02 ± 0.027,1.06 ± 0.024,1.03 ± 0.033,1.05 ± 0.023
UniProt O43829,1.04 ± 0.018,1.08 ± 0.035,1.05 ± 0.035,1.041 ± 0.0073,1.02 ± 0.045,1.06 ± 0.05
UniProt O43296,0.997 ± 0.018,0.956 ± 0.017,0.957 ± 0.007,0.954 ± 0.021,0.953 ± 0.03,0.947 ± 0.034
UniProt O00422 and related entries,1.02 ± 0.099,1 ± 0.12,0.981 ± 0.12,0.998 ± 0.12,0.962 ± 0.068,1.12 ± 0.21
K7ERT1 and related entries (UniProt O00273),1.04 ± 0.043,1.01 ± 0.03,1.01 ± 0.072,0.984 ± 0.019,0.995 ± 0.065,0.969 ± 0.06

Target,NP40-soluble protein abundance (concentration: 1mM),NP40-soluble protein abundance (concentration: 2mM),NP40-soluble protein abundance (concentration: 4mM),NP40-soluble protein abundance (concentration: 6mM),NP40-soluble protein abundance (concentration: 8mM),NP40-soluble protein abundance (concentration: 10mM)
UniProt O14936 and related entries,0.993 ± 0.022,1.02 ± 0.017,0.985 ± 0.013,0.9876 ± 0.0029,0.985 ± 0.015,0.98 ± 0.023
M0QYT9 and related entries (UniProt Q14653),0.988 ± 0.049,0.972 ± 0.016,0.997 ± 0.02,1.01 ± 0.057,1.04 ± 0.055,0.985 ± 0.035
DHX15 (UniProt O43143),1.1 ± 0.034,1.06 ± 0.079,1.14 ± 0.074,1.17 ± 0.053,1.17 ± 0.017,1.17 ± 0.045
UniProt O00567,1.08 ± 0.026,1.08 ± 0.024,1.16 ± 0.026,1.25 ± 0.056,1.37 ± 0.087,1.53 ± 0.12
UniProt O15260 and related entries,0.991 ± 0.028,0.982 ± 0.022,0.974 ± 0.031,0.966 ± 0.037,0.976 ± 0.011,0.983 ± 0.022
UniProt O43524 and related entries,0.988 ± 0.055,1.021 ± 0.0014,0.965 ± 0.011,0.9882 ± 0.0051,0.9824 ± 0.0098,0.9866 ± 0.0047
UniProt O14773 and related entries,1.03 ± 0.047,0.981 ± 0.024,1.02 ± 0.082,1.06 ± 0.04,1.09 ± 0.061,1.05 ± 0.089
PSMD3 (UniProt O43242),0.909 ± 0.031,0.865 ± 0.055,0.885 ± 0.091,0.906 ± 0.087,0.933 ± 0.11,0.915 ± 0.14
GNPAT (UniProt O15228),0.97 ± 0.021,0.896 ± 0.081,0.959 ± 0.028,0.922 ± 0.013,0.961 ± 0.024,0.893 ± 0.029
WASL (UniProt O00401),0.987 ± 0.021,1.01 ± 0.016,0.99 ± 0.033,1.001 ± 0.0023,0.963 ± 0.017,0.9623 ± 0.0052
ZBTB43 (UniProt O43298),0.998 ± 0.019,0.99 ± 0.015,0.991 ± 0.012,1.01 ± 0.05,1 ± 0.069,0.979 ± 0.064
UniProt O43156,0.989 ± 0.038,0.956 ± 0.076,0.95 ± 0.027,0.928 ± 0.014,0.9224 ± 0.0023,0.909 ± 0.02
UniProt O14523 and related entries,0.973 ± 0.015,0.988 ± 0.013,0.985 ± 0.037,0.968 ± 0.027,0.97 ± 0.047,1.01 ± 0.06
MED7 (UniProt O43513),1.03 ± 0.034,1.02 ± 0.036,1.01 ± 0.033,1 ± 0.039,1.01 ± 0.017,1 ± 0.036
UniProt O43150 and related entries,0.98 ± 0.012,0.993 ± 0.011,0.972 ± 0.034,0.949 ± 0.024,0.933 ± 0.014,0.944 ± 0.045
NUDT21 (UniProt O43809),1.03 ± 0.032,1.03 ± 0.018,1.08 ± 0.054,1.148 ± 0.0083,1.205 ± 0.0067,1.29 ± 0.046
DNM1L (UniProt O00429),0.982 ± 0.0091,0.9646 ± 0.0086,0.959 ± 0.029,0.969 ± 0.038,0.959 ± 0.033,0.95 ± 0.035
AP3B1 (UniProt O00203),1.02 ± 0.033,0.997 ± 0.075,1.02 ± 0.06,1.06 ± 0.084,1.06 ± 0.053,1.11 ± 0.064
BACH1 (UniProt O14867),0.996 ± 0.051,1 ± 0.027,0.9979 ± 0.0049,1 ± 0.044,0.996 ± 0.043,1.02 ± 0.021
UniProt O14975 and related entries,1.01 ± 0.047,0.976 ± 0.021,1.012 ± 0.0053,0.992 ± 0.021,1.01 ± 0.03,0.993 ± 0.024

Target,NP40-soluble protein abundance (concentration: 1mM),NP40-soluble protein abundance (concentration: 2mM),NP40-soluble protein abundance (concentration: 4mM),NP40-soluble protein abundance (concentration: 6mM),NP40-soluble protein abundance (concentration: 8mM),NP40-soluble protein abundance (concentration: 10mM)
SYNJ2 (UniProt O15056),0.979 ± 0.036,0.98 ± 0.03,0.989 ± 0.014,0.949 ± 0.016,0.963 ± 0.027,0.957 ± 0.029
IPO8 (UniProt O15397),0.987 ± 0.041,0.976 ± 0.031,0.975 ± 0.011,0.94 ± 0.022,0.926 ± 0.014,0.931 ± 0.024
M0R3D4 and related entries (UniProt Q9UI14),0.961 ± 0.048,0.957 ± 0.042,0.946 ± 0.038,1.07 ± 0.05,1.07 ± 0.037,1.05 ± 0.021
UniProt O15400 and related entries,1.01 ± 0.059,1.04 ± 0.1,0.993 ± 0.06,0.992 ± 0.035,0.976 ± 0.039,0.957 ± 0.038
UniProt O43865,0.994 ± 0.035,1.03 ± 0.05,1.03 ± 0.036,1.02 ± 0.034,1 ± 0.056,1.04 ± 0.047
SCD (UniProt O00767),0.966 ± 0.063,0.917 ± 0.06,0.931 ± 0.034,0.946 ± 0.069,0.963 ± 0.06,0.944 ± 0.054
UBE2L6 (UniProt O14933),0.953 ± 0.04,1.019 ± 0.0083,0.933 ± 0.074,0.928 ± 0.042,0.923 ± 0.036,0.911 ± 0.098
XPO1 (UniProt O14980),0.966 ± 0.036,0.935 ± 0.01,0.946 ± 0.014,0.937 ± 0.05,0.908 ± 0.063,0.901 ± 0.051
UniProt O00487,0.931 ± 0.027,0.881 ± 0.087,0.903 ± 0.053,0.874 ± 0.055,0.887 ± 0.079,0.873 ± 0.092
SLC16A3 (UniProt O15427),1.0247 ± 0.001,0.988 ± 0.024,0.956 ± 0.038,1 ± 0.01,0.97607 ± 0.00082,0.945 ± 0.016
UniProt O14974 and related entries,1.04 ± 0.023,1.11 ± 0.07,1.06 ± 0.019,1.06 ± 0.062,1.03 ± 0.028,1.07 ± 0.033
TOR1B (UniProt O14657),0.961 ± 0.061,0.959 ± 0.044,0.968 ± 0.039,1 ± 0.083,0.999 ± 0.085,1.02 ± 0.08
SPTLC1 (UniProt O15269),0.99 ± 0.012,0.952 ± 0.072,0.988 ± 0.027,1.02 ± 0.037,1.01 ± 0.036,0.993 ± 0.019
UniProt O15117 and related entries,1.06 ± 0.065,1.11 ± 0.11,1.05 ± 0.029,1.12 ± 0.047,1.09 ± 0.034,1.14 ± 0.033
UniProt O15371 and related entries,1.04 ± 0.033,1.01 ± 0.091,1.1 ± 0.066,1.12 ± 0.083,1.2 ± 0.093,1.25 ± 0.15
UniProt O00764 and related entries,0.987 ± 0.02,0.929 ± 0.047,0.978 ± 0.029,1.01 ± 0.035,1.03 ± 0.041,1.01 ± 0.028
OPLAH (UniProt O14841),0.989 ± 0.026,0.988 ± 0.014,1.01 ± 0.021,0.9972 ± 0.0098,0.982 ± 0.018,0.997 ± 0.017
M0R2Z9 and related entries (UniProt Q8IX01),1.03 ± 0.061,1.05 ± 0.019,1.01 ± 0.037,1 ± 0.046,0.977 ± 0.036,0.995 ± 0.07
UniProt O00154-4|O00154-7|K7EKP8,1.01 ± 0.016,0.99 ± 0.016,1.04 ± 0.017,1.06 ± 0.052,1.06 ± 0.041,1.08 ± 0.025
MAFG (UniProt O15525),0.96 ± 0.048,0.972 ± 0.037,0.95 ± 0.018,1.01 ± 0.078,0.99 ± 0.03,1 ± 0.025

# Rewritten with tabs: entries from further up.
Target	NP40-soluble protein abundance (concentration: 1mM)	NP40-soluble protein abundance (concentration: 2mM)	NP40-soluble protein abundance (concentration: 4mM)	NP40-soluble protein abundance (concentration: 6mM)	NP40-soluble protein abundance (concentration: 8mM)	NP40-soluble protein abundance (concentration: 10mM)
UniProt O00154-4|O00154-7|K7EKP8	1.01 ± 0.016	0.99 ± 0.016	1.04 ± 0.017	1.06 ± 0.052	1.06 ± 0.041	1.08 ± 0.025
MAFG (UniProt O15525)	0.96 ± 0.048	0.972 ± 0.037	0.95 ± 0.018	1.01 ± 0.078	0.99 ± 0.03	1 ± 0.025
